No constants are given. Whether binding was seen depends on the method and setting. Binding seen in cells or lysates may run through a third protein. Some binding calls cover weakened binding; strength is not graded here. Where a sequence is shown, tags or fusion partners need not be part of it. Each block holds one binder with its values, some of them ahead of it.
Assays:
[1] = target: T1, Smith-Magenis syndrome chromosome region candidate 8 (SMCR8), endogenous (human (endogenous in HEK293T)) (UniProt Q8TEV9); assay: co-IP; lysates of HEK293T cells transfected with C9orf72-Flag, anti-SMCR8 antibody and protein A Sepharose beads, control IgG, immunoblot
T1 sequence: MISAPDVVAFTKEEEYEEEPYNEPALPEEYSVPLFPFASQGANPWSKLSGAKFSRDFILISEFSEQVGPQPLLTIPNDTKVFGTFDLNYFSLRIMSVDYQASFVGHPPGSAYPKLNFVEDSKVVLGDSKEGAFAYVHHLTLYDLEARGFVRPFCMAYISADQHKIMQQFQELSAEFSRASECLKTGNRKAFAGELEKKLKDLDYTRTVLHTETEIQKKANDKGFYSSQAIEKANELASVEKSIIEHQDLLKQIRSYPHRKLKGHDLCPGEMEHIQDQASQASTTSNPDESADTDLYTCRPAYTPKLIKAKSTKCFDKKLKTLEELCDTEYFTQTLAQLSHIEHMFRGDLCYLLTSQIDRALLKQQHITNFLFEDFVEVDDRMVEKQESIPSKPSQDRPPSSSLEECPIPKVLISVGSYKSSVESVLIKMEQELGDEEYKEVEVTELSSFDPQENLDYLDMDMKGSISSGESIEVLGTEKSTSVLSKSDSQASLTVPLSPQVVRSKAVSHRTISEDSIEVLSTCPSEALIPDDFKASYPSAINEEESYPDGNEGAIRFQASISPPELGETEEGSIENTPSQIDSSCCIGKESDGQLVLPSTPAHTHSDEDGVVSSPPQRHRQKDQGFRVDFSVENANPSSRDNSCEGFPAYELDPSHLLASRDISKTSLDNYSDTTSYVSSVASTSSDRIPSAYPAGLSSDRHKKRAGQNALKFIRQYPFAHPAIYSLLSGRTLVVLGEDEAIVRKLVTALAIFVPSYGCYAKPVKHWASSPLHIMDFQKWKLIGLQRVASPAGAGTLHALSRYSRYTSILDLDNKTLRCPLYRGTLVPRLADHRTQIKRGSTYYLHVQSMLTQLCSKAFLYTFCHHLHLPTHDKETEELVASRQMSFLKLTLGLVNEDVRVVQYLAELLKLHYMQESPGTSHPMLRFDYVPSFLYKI

Flag-SMCR8 = target: T2, Flag-SMCR8 (UniProt Q8TEV9); assay: co-IP; lysates of transfected HEK293T cells in IP buffer (50 mM Tris pH 7.4, 150 mM NaCl, 1% Triton) on Flag-conjugated beads, 2 h at 4°C, 5 washes, immunoblot
T2 sequence: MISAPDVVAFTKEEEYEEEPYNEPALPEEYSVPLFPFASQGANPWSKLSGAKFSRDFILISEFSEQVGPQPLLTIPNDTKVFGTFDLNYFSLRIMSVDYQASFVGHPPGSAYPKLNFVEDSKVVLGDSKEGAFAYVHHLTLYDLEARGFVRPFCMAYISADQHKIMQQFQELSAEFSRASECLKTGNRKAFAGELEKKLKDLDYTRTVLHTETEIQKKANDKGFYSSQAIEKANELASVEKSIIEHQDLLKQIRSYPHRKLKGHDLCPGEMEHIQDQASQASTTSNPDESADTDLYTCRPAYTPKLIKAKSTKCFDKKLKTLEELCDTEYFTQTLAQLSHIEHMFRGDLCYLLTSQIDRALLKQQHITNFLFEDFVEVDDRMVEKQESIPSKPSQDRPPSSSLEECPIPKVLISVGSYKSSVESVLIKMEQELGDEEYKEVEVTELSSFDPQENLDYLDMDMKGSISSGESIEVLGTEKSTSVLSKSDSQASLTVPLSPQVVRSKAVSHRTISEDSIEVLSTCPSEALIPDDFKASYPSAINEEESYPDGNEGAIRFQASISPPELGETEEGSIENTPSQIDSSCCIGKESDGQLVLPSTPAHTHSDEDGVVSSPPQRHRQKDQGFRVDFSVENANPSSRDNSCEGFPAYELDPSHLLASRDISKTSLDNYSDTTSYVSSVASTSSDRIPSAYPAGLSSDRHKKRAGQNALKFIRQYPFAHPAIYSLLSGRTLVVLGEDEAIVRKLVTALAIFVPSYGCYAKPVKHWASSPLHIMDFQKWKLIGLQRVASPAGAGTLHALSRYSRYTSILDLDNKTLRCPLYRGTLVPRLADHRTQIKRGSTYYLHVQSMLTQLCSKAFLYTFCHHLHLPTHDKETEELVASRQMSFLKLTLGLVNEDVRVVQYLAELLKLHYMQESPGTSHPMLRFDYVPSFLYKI

[2] = target: T3, Human C9orf72 Isoform A with a C-terminal Flag tag (human) (UniProt Q96LT7); assay: as above
T3 sequence: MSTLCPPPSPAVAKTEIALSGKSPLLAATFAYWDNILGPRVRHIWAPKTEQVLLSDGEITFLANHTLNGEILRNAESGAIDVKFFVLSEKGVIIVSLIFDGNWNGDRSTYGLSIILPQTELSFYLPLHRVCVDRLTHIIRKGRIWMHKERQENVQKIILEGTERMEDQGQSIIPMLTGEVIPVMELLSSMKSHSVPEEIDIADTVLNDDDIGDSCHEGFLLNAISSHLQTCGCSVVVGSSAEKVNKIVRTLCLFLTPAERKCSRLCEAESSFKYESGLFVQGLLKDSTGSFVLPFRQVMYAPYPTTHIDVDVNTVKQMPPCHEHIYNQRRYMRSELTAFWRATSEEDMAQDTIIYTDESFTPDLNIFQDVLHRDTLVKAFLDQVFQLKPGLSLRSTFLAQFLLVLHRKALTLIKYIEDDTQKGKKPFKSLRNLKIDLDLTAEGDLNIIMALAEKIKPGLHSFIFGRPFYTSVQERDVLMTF

binding [1]: binds
B1: Human C9orf72 Isoform A with a C-terminal Flag tag (protein, UniProt Q96LT7 1-481)
chain: MSTLCPPPSPAVAKTEIALSGKSPLLAATFAYWDNILGPRVRHIWAPKTEQVLLSDGEITFLANHTLNGEILRNAESGAIDVKFFVLSEKGVIIVSLIFDGNWNGDRSTYGLSIILPQTELSFYLPLHRVCVDRLTHIIRKGRIWMHKERQENVQKIILEGTERMEDQGQSIIPMLTGEVIPVMELLSSMKSHSVPEEIDIADTVLNDDDIGDSCHEGFLLNAISSHLQTCGCSVVVGSSAEKVNKIVRTLCLFLTPAERKCSRLCEAESSFKYESGLFVQGLLKDSTGSFVLPFRQVMYAPYPTTHIDVDVNTVKQMPPCHEHIYNQRRYMRSELTAFWRATSEEDMAQDTIIYTDESFTPDLNIFQDVLHRDTLVKAFLDQVFQLKPGLSLRSTFLAQFLLVLHRKALTLIKYIEDDTQKGKKPFKSLRNLKIDLDLTAEGDLNIIMALAEKIKPGLHSFIFGRPFYTSVQERDVLMTF

binding (Flag-SMCR8): binds
B2: C9orf72-V5 (protein, UniProt Q96LT7 1-481)
chain: MSTLCPPPSPAVAKTEIALSGKSPLLAATFAYWDNILGPRVRHIWAPKTEQVLLSDGEITFLANHTLNGEILRNAESGAIDVKFFVLSEKGVIIVSLIFDGNWNGDRSTYGLSIILPQTELSFYLPLHRVCVDRLTHIIRKGRIWMHKERQENVQKIILEGTERMEDQGQSIIPMLTGEVIPVMELLSSMKSHSVPEEIDIADTVLNDDDIGDSCHEGFLLNAISSHLQTCGCSVVVGSSAEKVNKIVRTLCLFLTPAERKCSRLCEAESSFKYESGLFVQGLLKDSTGSFVLPFRQVMYAPYPTTHIDVDVNTVKQMPPCHEHIYNQRRYMRSELTAFWRATSEEDMAQDTIIYTDESFTPDLNIFQDVLHRDTLVKAFLDQVFQLKPGLSLRSTFLAQFLLVLHRKALTLIKYIEDDTQKGKKPFKSLRNLKIDLDLTAEGDLNIIMALAEKIKPGLHSFIFGRPFYTSVQERDVLMTF

binding [2]: binds
B3: Smith-Magenis syndrome chromosome region candidate 8 (SMCR8), endogenous (protein, UniProt Q8TEV9 1-937)
chain: MISAPDVVAFTKEEEYEEEPYNEPALPEEYSVPLFPFASQGANPWSKLSGAKFSRDFILISEFSEQVGPQPLLTIPNDTKVFGTFDLNYFSLRIMSVDYQASFVGHPPGSAYPKLNFVEDSKVVLGDSKEGAFAYVHHLTLYDLEARGFVRPFCMAYISADQHKIMQQFQELSAEFSRASECLKTGNRKAFAGELEKKLKDLDYTRTVLHTETEIQKKANDKGFYSSQAIEKANELASVEKSIIEHQDLLKQIRSYPHRKLKGHDLCPGEMEHIQDQASQASTTSNPDESADTDLYTCRPAYTPKLIKAKSTKCFDKKLKTLEELCDTEYFTQTLAQLSHIEHMFRGDLCYLLTSQIDRALLKQQHITNFLFEDFVEVDDRMVEKQESIPSKPSQDRPPSSSLEECPIPKVLISVGSYKSSVESVLIKMEQELGDEEYKEVEVTELSSFDPQENLDYLDMDMKGSISSGESIEVLGTEKSTSVLSKSDSQASLTVPLSPQVVRSKAVSHRTISEDSIEVLSTCPSEALIPDDFKASYPSAINEEESYPDGNEGAIRFQASISPPELGETEEGSIENTPSQIDSSCCIGKESDGQLVLPSTPAHTHSDEDGVVSSPPQRHRQKDQGFRVDFSVENANPSSRDNSCEGFPAYELDPSHLLASRDISKTSLDNYSDTTSYVSSVASTSSDRIPSAYPAGLSSDRHKKRAGQNALKFIRQYPFAHPAIYSLLSGRTLVVLGEDEAIVRKLVTALAIFVPSYGCYAKPVKHWASSPLHIMDFQKWKLIGLQRVASPAGAGTLHALSRYSRYTSILDLDNKTLRCPLYRGTLVPRLADHRTQIKRGSTYYLHVQSMLTQLCSKAFLYTFCHHLHLPTHDKETEELVASRQMSFLKLTLGLVNEDVRVVQYLAELLKLHYMQESPGTSHPMLRFDYVPSFLYKI

Source: article PMC5119725
